± gives the standard deviation of the averaged measurements. The list shows a part of the results, in another mix than the full data.
Compound: Nc1ncnc2c1ncn2[C@@H]1O[C@H](COP(=O)(O)OP(=O)(O)OP(=O)(O)O)[C@@H](O)[C@H]1O [adenosine triphosphate]
Experiment: NP40-soluble protein abundance relative to vehicle (solubility fold change) (ratio); higher = more soluble protein in presence of ATP
Summary of the method: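 In three independent experiments, Jurkat crude lysate made by Dounce homogenisation was treated for 10 min at room temperature and then 3 min at 37 °C with eight concentrations ranging from 0.1 to 10 mM. It was then solubilised with 0.8% NP40 plus benzonase for 60 min at 4 °C and ultracentrifuged. The supernatant was TMT-labelled for LC-MS/MS, and each value is the fold change against the detergent-processed vehicle for the same replicate, using vsn-normalised intensities.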

Chains of the proteins cited; added tags and fusions are not shown. Lines headed by an entry give the natural chain unless they say otherwise; changes in a name come on top.
UniProt P28799: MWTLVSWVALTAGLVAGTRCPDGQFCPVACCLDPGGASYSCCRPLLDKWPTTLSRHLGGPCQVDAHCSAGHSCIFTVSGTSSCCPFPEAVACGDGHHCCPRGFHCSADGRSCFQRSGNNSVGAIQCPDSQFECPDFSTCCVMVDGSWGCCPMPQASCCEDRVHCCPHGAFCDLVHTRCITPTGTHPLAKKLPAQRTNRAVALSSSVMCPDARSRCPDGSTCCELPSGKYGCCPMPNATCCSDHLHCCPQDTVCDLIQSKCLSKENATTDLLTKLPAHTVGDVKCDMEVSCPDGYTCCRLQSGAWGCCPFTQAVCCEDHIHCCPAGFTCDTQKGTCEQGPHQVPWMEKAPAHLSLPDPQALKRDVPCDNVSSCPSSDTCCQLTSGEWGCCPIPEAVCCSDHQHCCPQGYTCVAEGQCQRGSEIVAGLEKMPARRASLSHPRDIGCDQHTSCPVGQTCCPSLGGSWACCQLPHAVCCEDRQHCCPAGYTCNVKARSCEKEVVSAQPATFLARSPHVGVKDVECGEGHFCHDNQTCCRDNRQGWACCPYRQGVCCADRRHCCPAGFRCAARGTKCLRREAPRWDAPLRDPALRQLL
UniProt P33316: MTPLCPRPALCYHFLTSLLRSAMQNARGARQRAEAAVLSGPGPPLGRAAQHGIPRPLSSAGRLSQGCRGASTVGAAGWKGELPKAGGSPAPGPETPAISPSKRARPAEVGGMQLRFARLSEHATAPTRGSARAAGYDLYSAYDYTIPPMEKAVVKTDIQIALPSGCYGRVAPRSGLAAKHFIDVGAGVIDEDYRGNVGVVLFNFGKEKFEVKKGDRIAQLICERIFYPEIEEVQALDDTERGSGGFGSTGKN
UniProt P31939: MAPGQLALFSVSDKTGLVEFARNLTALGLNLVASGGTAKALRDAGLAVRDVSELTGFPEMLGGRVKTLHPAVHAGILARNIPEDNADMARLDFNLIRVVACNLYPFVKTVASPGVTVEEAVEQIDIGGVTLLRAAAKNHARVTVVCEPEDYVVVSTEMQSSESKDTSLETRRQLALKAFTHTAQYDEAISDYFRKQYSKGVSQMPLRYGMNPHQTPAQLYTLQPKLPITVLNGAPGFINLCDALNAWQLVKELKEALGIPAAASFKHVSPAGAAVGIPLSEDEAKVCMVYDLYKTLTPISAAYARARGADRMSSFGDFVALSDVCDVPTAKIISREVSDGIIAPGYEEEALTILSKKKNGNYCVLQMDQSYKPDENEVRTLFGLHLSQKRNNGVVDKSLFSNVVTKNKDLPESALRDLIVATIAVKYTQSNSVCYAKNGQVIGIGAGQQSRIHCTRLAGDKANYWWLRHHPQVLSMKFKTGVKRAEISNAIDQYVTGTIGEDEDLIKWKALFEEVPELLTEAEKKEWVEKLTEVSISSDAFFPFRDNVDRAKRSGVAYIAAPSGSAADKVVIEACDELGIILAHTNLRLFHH
UniProt P30405: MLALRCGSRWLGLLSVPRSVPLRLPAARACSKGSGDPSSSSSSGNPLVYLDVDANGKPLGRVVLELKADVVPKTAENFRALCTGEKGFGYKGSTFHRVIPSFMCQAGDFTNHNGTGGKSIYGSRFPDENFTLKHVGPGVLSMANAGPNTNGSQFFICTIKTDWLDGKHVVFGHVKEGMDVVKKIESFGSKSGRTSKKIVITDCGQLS
UniProt P22314: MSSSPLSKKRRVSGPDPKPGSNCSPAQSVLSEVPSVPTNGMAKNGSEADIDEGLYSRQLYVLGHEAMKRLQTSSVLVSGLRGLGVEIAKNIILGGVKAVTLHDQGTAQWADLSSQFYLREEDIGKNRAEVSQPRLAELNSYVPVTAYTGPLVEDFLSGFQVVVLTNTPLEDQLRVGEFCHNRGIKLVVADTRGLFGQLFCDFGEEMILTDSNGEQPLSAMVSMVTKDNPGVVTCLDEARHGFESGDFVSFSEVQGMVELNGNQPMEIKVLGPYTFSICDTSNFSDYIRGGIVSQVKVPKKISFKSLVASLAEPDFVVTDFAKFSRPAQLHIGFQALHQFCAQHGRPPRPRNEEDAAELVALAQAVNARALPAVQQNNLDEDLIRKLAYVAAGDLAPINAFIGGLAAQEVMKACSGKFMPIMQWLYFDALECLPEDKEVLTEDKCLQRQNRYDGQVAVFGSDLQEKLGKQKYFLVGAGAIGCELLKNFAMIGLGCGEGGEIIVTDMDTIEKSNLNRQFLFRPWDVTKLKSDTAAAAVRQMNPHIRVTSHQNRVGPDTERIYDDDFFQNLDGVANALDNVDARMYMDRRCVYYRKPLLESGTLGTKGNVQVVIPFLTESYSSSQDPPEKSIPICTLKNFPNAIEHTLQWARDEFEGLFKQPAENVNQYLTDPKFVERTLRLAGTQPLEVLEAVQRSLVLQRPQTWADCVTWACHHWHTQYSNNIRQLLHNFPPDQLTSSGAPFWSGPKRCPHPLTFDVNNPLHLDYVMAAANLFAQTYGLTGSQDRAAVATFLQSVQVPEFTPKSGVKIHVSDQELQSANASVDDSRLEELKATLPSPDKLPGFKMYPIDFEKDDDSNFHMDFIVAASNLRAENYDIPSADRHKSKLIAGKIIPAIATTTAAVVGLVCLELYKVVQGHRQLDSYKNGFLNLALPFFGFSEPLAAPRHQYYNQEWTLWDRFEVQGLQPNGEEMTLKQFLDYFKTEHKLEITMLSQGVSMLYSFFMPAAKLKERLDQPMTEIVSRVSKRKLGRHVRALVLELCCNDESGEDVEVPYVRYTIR
UniProt P30085: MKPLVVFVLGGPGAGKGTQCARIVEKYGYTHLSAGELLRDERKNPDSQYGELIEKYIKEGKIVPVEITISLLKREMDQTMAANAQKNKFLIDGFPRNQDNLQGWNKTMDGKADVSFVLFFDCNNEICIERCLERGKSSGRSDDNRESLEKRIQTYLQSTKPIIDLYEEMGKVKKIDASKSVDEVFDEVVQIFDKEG
UniProt P18858, whole entry: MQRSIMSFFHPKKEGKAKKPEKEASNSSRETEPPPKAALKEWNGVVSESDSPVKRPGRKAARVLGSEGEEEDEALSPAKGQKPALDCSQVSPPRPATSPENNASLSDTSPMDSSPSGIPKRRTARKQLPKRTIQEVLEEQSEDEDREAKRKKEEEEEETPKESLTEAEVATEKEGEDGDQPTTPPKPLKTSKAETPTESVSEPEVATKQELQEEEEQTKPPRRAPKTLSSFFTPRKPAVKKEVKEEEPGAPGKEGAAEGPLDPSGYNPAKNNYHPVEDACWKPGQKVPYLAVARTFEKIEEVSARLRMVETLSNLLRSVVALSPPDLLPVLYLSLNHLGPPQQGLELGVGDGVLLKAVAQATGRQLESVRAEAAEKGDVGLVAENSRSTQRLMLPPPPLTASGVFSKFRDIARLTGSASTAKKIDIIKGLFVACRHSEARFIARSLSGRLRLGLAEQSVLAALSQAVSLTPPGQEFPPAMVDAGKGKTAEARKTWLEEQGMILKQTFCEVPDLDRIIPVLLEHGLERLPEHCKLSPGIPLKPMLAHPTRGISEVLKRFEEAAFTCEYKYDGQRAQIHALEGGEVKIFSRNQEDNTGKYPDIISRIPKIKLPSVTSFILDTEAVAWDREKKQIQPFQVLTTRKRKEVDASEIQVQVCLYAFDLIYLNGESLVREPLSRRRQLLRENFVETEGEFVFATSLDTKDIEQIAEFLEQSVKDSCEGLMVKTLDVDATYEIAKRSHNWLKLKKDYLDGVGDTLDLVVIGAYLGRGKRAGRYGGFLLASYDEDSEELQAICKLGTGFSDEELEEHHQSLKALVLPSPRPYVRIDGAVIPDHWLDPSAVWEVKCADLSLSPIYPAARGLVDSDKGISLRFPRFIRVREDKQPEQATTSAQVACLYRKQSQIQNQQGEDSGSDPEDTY
UniProt P23284: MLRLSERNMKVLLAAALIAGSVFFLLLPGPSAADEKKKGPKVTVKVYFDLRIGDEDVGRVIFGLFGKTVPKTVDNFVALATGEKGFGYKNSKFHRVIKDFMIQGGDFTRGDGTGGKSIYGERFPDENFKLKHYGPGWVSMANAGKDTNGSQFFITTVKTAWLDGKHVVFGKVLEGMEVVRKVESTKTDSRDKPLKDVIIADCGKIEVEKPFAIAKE
UniProt P30086: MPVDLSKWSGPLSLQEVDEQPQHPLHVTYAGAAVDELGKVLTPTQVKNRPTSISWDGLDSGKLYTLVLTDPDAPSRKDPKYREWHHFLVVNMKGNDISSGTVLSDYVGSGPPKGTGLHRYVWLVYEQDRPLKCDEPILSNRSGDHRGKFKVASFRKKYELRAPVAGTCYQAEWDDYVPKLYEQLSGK
UniProt P23511, whole entry: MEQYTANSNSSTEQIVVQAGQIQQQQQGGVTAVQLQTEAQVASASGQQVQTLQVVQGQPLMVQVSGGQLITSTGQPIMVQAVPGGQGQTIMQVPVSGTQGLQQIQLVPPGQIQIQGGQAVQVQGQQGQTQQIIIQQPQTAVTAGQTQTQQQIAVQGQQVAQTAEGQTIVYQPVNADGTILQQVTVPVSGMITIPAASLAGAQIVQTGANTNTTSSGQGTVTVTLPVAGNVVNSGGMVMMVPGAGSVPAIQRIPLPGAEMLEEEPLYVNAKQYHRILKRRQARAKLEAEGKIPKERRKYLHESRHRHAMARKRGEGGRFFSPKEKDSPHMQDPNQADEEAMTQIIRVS
UniProt P18031: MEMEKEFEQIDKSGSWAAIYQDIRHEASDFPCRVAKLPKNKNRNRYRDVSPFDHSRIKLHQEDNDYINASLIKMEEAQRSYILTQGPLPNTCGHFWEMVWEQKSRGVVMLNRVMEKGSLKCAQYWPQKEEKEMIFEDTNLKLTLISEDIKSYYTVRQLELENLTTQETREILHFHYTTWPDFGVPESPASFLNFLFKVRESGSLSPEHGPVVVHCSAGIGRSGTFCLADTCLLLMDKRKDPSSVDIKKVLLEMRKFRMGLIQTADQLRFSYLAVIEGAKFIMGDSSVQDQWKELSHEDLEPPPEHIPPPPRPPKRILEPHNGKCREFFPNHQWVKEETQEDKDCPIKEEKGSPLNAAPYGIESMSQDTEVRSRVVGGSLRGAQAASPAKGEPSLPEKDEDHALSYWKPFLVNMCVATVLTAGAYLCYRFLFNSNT
UniProt P26196: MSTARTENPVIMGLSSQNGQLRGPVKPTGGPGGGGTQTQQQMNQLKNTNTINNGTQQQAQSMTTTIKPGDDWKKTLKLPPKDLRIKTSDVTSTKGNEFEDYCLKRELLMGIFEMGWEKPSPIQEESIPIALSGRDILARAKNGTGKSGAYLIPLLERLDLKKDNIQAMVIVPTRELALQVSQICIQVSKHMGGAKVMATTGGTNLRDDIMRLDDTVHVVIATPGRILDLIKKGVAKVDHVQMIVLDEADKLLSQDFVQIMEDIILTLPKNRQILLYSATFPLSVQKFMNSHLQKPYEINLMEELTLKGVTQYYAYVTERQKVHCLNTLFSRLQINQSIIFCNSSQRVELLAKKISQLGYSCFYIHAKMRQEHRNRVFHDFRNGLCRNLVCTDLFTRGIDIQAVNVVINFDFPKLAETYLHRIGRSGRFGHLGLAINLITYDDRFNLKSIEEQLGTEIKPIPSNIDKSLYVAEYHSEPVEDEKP

Question: UniProt P28799 and related entries was tested. Which NP40-soluble protein abundance (concentration: 1mM) did it give?
Answer: 1 ± 0.087

Question: And the NP40-soluble protein abundance (concentration: 2mM)?
Answer: 1.01 ± 0.08

Question: And the NP40-soluble protein abundance (concentration: 4mM)?
Answer: 1.07 ± 0.038

Question: And the NP40-soluble protein abundance (concentration: 6mM)?
Answer: 1.12 ± 0.072

Question: And the NP40-soluble protein abundance (concentration: 8mM)?
Answer: 1.07 ± 0.022

Question: And the NP40-soluble protein abundance (concentration: 10mM)?
Answer: 1.03 ± 0.091

Question: For UniProt P35658 and related entries, which NP40-soluble protein abundance (concentration: 1mM) is on record?
Answer: 0.9604 ± 0.0074

Question: And the NP40-soluble protein abundance (concentration: 2mM)?
Answer: 0.976 ± 0.021

Question: And the NP40-soluble protein abundance (concentration: 4mM)?
Answer: 1.01 ± 0.012

Question: And the NP40-soluble protein abundance (concentration: 6mM)?
Answer: 1.04 ± 0.011

Question: And the NP40-soluble protein abundance (concentration: 8mM)?
Answer: 1.028 ± 0.0092

Question: And the NP40-soluble protein abundance (concentration: 10mM)?
Answer: 1.08 ± 0.024

Question: With UniProt P33316 and related entries as the target, how does the NP40-soluble protein abundance (concentration: 1mM) read?
Answer: 0.991 ± 0.044

Question: What about the NP40-soluble protein abundance (concentration: 2mM) of the same target?
Answer: 0.9957 ± 0.0028

Question: And the NP40-soluble protein abundance (concentration: 4mM)?
Answer: 0.977 ± 0.026

Question: And the NP40-soluble protein abundance (concentration: 6mM)?
Answer: 1 ± 0.03

Question: What about the NP40-soluble protein abundance (concentration: 8mM) of the same target?
Answer: 0.965 ± 0.031

Question: What about the NP40-soluble protein abundance (concentration: 10mM) of the same target?
Answer: 0.944 ± 0.018

Question: Which NP40-soluble protein abundance (concentration: 1mM) does the source give for ATIC (UniProt P31939) here?
Answer: 0.991 ± 0.035

Question: What about the NP40-soluble protein abundance (concentration: 2mM) of the same target?
Answer: 1.01 ± 0.063

Question: What about the NP40-soluble protein abundance (concentration: 4mM) of the same target?
Answer: 0.966 ± 0.047

Question: What about the NP40-soluble protein abundance (concentration: 6mM) of the same target?
Answer: 0.982 ± 0.093

Question: And the NP40-soluble protein abundance (concentration: 8mM)?
Answer: 0.976 ± 0.056

Question: What about the NP40-soluble protein abundance (concentration: 10mM) of the same target?
Answer: 0.969 ± 0.071

Question: How did the NP40-soluble protein abundance (concentration: 1mM) turn out when AGL (UniProt P35573) was run?
Answer: 1.12 ± 0.021

Question: And the NP40-soluble protein abundance (concentration: 2mM)?
Answer: 1.11 ± 0.019

Question: What about the NP40-soluble protein abundance (concentration: 4mM) of the same target?
Answer: 1.2 ± 0.063

Question: What about the NP40-soluble protein abundance (concentration: 6mM) of the same target?
Answer: 1.16 ± 0.04

Question: What about the NP40-soluble protein abundance (concentration: 8mM) of the same target?
Answer: 1.29 ± 0.091

Question: What about the NP40-soluble protein abundance (concentration: 10mM) of the same target?
Answer: 1.34 ± 0.044

Question: Which NP40-soluble protein abundance (concentration: 1mM) does the source give for PPIF (UniProt P30405) here?
Answer: 0.993 ± 0.046

Question: What about the NP40-soluble protein abundance (concentration: 2mM) of the same target?
Answer: 0.963 ± 0.011

Question: What about the NP40-soluble protein abundance (concentration: 4mM) of the same target?
Answer: 0.934 ± 0.0096

Question: And the NP40-soluble protein abundance (concentration: 6mM)?
Answer: 1.011 ± 0.0056

Question: What about the NP40-soluble protein abundance (concentration: 8mM) of the same target?
Answer: 0.955 ± 0.024

Question: And the NP40-soluble protein abundance (concentration: 10mM)?
Answer: 0.911 ± 0.038

Question: How did the NP40-soluble protein abundance (concentration: 1mM) turn out when UniProt P22314 and related entries was run?
Answer: 0.983 ± 0.02

Question: And the NP40-soluble protein abundance (concentration: 2mM)?
Answer: 0.978 ± 0.037

Question: And the NP40-soluble protein abundance (concentration: 4mM)?
Answer: 0.955 ± 0.034

Question: What about the NP40-soluble protein abundance (concentration: 6mM) of the same target?
Answer: 0.947 ± 0.068

Question: What about the NP40-soluble protein abundance (concentration: 8mM) of the same target?
Answer: 0.956 ± 0.036

Question: What about the NP40-soluble protein abundance (concentration: 10mM) of the same target?
Answer: 0.948 ± 0.052

Question: What does the source list for CMPK1 (UniProt P30085)?
Answer: NP40-soluble protein abundance (concentration: 1mM): 0.972 ± 0.049; NP40-soluble protein abundance (concentration: 2mM): 0.978 ± 0.033; NP40-soluble protein abundance (concentration: 4mM): 0.924 ± 0.032; NP40-soluble protein abundance (concentration: 6mM): 1.01 ± 0.031; NP40-soluble protein abundance (concentration: 8mM): 0.94 ± 0.034; NP40-soluble protein abundance (concentration: 10mM): 0.921 ± 0.037

Question: Which results are given for UniProt P18858 and related entries?
Answer: NP40-soluble protein abundance (concentration: 1mM): 0.9618 ± 0.0083; NP40-soluble protein abundance (concentration: 2mM): 0.971 ± 0.02; NP40-soluble protein abundance (concentration: 4mM): 0.9564 ± 0.0082; NP40-soluble protein abundance (concentration: 6mM): 0.961 ± 0.036; NP40-soluble protein abundance (concentration: 8mM): 0.948 ± 0.018; NP40-soluble protein abundance (concentration: 10mM): 0.947 ± 0.03

Question: Which results are given for PPIB (UniProt P23284)?
Answer: NP40-soluble protein abundance (concentration: 1mM): 0.971 ± 0.036; NP40-soluble protein abundance (concentration: 2mM): 0.985 ± 0.034; NP40-soluble protein abundance (concentration: 4mM): 0.946 ± 0.025; NP40-soluble protein abundance (concentration: 6mM): 1.05 ± 0.035; NP40-soluble protein abundance (concentration: 8mM): 0.9717 ± 0.0091; NP40-soluble protein abundance (concentration: 10mM): 0.979 ± 0.044

Question: How did the NP40-soluble protein abundance (concentration: 1mM) turn out when PEBP1 (UniProt P30086) was run?
Answer: 1.01 ± 0.09

Question: What about the NP40-soluble protein abundance (concentration: 2mM) of the same target?
Answer: 0.97 ± 0.011

Question: What about the NP40-soluble protein abundance (concentration: 4mM) of the same target?
Answer: 0.9448 ± 0.0061

Question: What about the NP40-soluble protein abundance (concentration: 6mM) of the same target?
Answer: 0.979 ± 0.03

Question: And the NP40-soluble protein abundance (concentration: 8mM)?
Answer: 0.95 ± 0.025

Question: And the NP40-soluble protein abundance (concentration: 10mM)?
Answer: 0.924 ± 0.03

Question: With UniProt P23634-6 as the target, how does the NP40-soluble protein abundance (concentration: 1mM) read?
Answer: 1.08 ± 0.12

Question: And the NP40-soluble protein abundance (concentration: 2mM)?
Answer: 1.01 ± 0.075

Question: What about the NP40-soluble protein abundance (concentration: 4mM) of the same target?
Answer: 1.02 ± 0.1

Question: And the NP40-soluble protein abundance (concentration: 6mM)?
Answer: 0.992 ± 0.091

Question: What about the NP40-soluble protein abundance (concentration: 8mM) of the same target?
Answer: 1.03 ± 0.093

Question: And the NP40-soluble protein abundance (concentration: 10mM)?
Answer: 1.02 ± 0.082

Question: Which NP40-soluble protein abundance (concentration: 1mM) does the source give for UniProt P23511 and related entries here?
Answer: 0.908 ± 0.045

Question: What about the NP40-soluble protein abundance (concentration: 2mM) of the same target?
Answer: 0.917 ± 0.011

Question: And the NP40-soluble protein abundance (concentration: 4mM)?
Answer: 0.882 ± 0.034

Question: And the NP40-soluble protein abundance (concentration: 6mM)?
Answer: 0.988 ± 0.023

Question: What about the NP40-soluble protein abundance (concentration: 8mM) of the same target?
Answer: 0.881 ± 0.051

Question: What about the NP40-soluble protein abundance (concentration: 10mM) of the same target?
Answer: 0.88 ± 0.056

Question: Which results are given for PTPN1 (UniProt P18031)?
Answer: NP40-soluble protein abundance (concentration: 1mM): 0.982 ± 0.086; NP40-soluble protein abundance (concentration: 2mM): 0.98 ± 0.088; NP40-soluble protein abundance (concentration: 4mM): 0.947 ± 0.057; NP40-soluble protein abundance (concentration: 6mM): 0.924 ± 0.11; NP40-soluble protein abundance (concentration: 8mM): 0.957 ± 0.053; NP40-soluble protein abundance (concentration: 10mM): 0.952 ± 0.062

Question: For DDX6 (UniProt P26196), which NP40-soluble protein abundance (concentration: 1mM) is on record?
Answer: 0.999 ± 0.023

Question: And the NP40-soluble protein abundance (concentration: 2mM)?
Answer: 0.992 ± 0.034

Question: What about the NP40-soluble protein abundance (concentration: 4mM) of the same target?
Answer: 0.981 ± 0.02

Question: And the NP40-soluble protein abundance (concentration: 6mM)?
Answer: 0.998 ± 0.078

Question: And the NP40-soluble protein abundance (concentration: 8mM)?
Answer: 1.01 ± 0.011

Question: What about the NP40-soluble protein abundance (concentration: 10mM) of the same target?
Answer: 1.05 ± 0.024

— the supplement of paper PMC6411743
